Assay results published in US20230228760A1, “INTRACELLULAR KINASE ASSOCIATED WITH RESISTANCE AGAINST T-CELL MEDIATED CYTOTOXICITY, AND USES THEREOF” (iOmx Therapeutics AG, priority 2020, published 2023).
These are yes or no findings as the source states them, for the method shown. Binding seen in cells or lysates may run through a third protein. Some results given as binding are weak or reduced against the parent protein; the word gives no strength.

Protein sequences, listed by entry. Tags and fused reporters are not part of them. Lines headed by an entry give the natural chain unless they say otherwise; changes in a name come on top.
UniProt Q8IU85: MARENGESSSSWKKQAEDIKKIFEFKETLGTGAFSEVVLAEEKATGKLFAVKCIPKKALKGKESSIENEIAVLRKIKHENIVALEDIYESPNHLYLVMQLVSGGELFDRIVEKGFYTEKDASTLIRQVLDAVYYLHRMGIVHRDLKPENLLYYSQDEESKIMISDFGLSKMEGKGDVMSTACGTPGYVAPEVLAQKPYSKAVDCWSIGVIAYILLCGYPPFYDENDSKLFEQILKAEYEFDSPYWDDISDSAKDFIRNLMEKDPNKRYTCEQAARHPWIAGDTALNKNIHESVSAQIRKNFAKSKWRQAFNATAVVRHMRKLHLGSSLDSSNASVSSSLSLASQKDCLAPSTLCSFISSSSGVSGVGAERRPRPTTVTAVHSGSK

Tests used:
caspase-7 (human) = target: T1, caspase-7 (human) (UniProt P55210); experiment: co-immunoprecipitation from KMM-1 lysates with anti-caspase-7, western blot for CAMK1D
T1 sequence (looked up): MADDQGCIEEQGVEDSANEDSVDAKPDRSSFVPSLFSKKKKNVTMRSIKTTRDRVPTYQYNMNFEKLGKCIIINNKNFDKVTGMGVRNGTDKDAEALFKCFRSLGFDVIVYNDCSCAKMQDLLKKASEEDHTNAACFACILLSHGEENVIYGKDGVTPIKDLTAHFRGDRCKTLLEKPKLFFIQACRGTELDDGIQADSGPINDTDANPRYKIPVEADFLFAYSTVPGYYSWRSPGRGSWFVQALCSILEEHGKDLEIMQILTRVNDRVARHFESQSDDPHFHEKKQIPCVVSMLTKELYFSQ

caspase-3 (human) [1] = target: T2, caspase-3 (human) (UniProt P42574); experiment: co-immunoprecipitation from KMM-1 lysates with anti-caspase-3, western blot for CAMK1D
T2 sequence (looked up): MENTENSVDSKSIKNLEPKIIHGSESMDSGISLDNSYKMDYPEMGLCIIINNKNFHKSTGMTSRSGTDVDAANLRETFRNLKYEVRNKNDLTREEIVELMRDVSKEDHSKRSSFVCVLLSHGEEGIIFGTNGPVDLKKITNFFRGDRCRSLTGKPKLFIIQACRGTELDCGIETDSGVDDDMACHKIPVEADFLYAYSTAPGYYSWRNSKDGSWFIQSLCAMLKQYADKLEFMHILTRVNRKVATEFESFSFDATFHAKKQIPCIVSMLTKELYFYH

caspase-6 (human) [2] = target: T3, caspase-6 (human) (UniProt P55212); experiment: co-immunoprecipitation from KMM-1 lysates with anti-caspase-6, western blot for CAMK1D
T3 sequence (looked up): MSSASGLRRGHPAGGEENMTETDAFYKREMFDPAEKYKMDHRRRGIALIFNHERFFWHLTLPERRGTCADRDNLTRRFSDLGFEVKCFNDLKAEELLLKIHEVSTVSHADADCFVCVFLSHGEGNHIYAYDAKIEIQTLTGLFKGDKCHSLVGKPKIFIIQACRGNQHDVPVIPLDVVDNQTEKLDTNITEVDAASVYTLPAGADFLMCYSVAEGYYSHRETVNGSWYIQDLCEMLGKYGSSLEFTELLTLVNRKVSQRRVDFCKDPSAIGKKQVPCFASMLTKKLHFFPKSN

caspase-6 (human) [3] = target: T3, caspase-6 (human); experiment: co-immunoprecipitation, KMM-1 cells stimulated with rHuFasL for 4h or unstimulated
caspase-3 (human) [4] = target: T2, caspase-3 (human); experiment: as above

Measured: binding

Calcium/calmodulin-dependent protein kinase type 1D (CAMK1D) (from UniProt Q8IU85 1-385) (enzyme)
binds: caspase-7 (human) | caspase-3 (human) [1] | caspase-6 (human) [2] | caspase-6 (human) [3] | caspase-3 (human) [4]
